Experimental data reported in the supplement of paper PMC9233669.
Variants at the floor of the assay are shown more often than the library holds them.

Tests used:
biotinyl-Phe-oxazolone = assay: self-aminoacylation, catalytic enhancement (BFO) (fold over background); higher = more active; k-Seq, kA / k0A0; sequences stand for … in GGGAAUGGAUCCACAUCUACGAAUUC…UUCACUGCAGACUUGACGAAGCUG
How it was run: (§1)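 Mutagenized RNA pools with a 21-nt variable region (0.43 μM) reacted with each biotinyl-aminoacyl-oxazolone at 2–1250 μM. Reactions ran in 50 μL HEPES/NaCl/KCl/MgCl2/CaCl2 buffer with 5% acetonitrile, pH 6.9–7.0, for 90 minutes at room temperature. Streptavidin-captured RNA was quantified by triplicate qPCR and Illumina sequencing, and per-sequence fraction reacted was fit to a pseudo-first-order model with 1000 bootstraps. Catalytic enhancement is median kA divided by the uncatalyzed rate, the low-activity peak of a bimodal Gaussian fit.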

biotinyl-Met-oxazolone = assay: self-aminoacylation, catalytic enhancement (BMO) (fold over background); higher = more active; k-Seq, kA / k0A0; sequences stand for … in GGGAAUGGAUCCACAUCUACGAAUUC…UUCACUGCAGACUUGACGAAGCUG
How it was run: as §1

biotinyl-Leu-oxazolone = assay: self-aminoacylation, catalytic enhancement (BLO) (fold over background); higher = more active; k-Seq, kA / k0A0; sequences stand for … in GGGAAUGGAUCCACAUCUACGAAUUC…UUCACUGCAGACUUGACGAAGCUG
How it was run: as §1

biotinyl-Val-oxazolone = assay: self-aminoacylation, catalytic enhancement (BVO) (fold over background); higher = more active; k-Seq, kA / k0A0; sequences stand for … in GGGAAUGGAUCCACAUCUACGAAUUC…UUCACUGCAGACUUGACGAAGCUG
How it was run: as §1

biotinyl-Trp-oxazolone = assay: self-aminoacylation, catalytic enhancement (BWO) (fold over background); higher = more active; k-Seq, kA / k0A0; sequences stand for … in GGGAAUGGAUCCACAUCUACGAAUUC…UUCACUGCAGACUUGACGAAGCUG
How it was run: as §1

biotinyl-Ile-oxazolone = assay: self-aminoacylation, catalytic enhancement (BIO) (fold over background); higher = more active; k-Seq, kA / k0A0; sequences stand for … in GGGAAUGGAUCCACAUCUACGAAUUC…UUCACUGCAGACUUGACGAAGCUG
How it was run: as §1

| Sequence | self-aminoacylation (biotinyl-Phe-oxazolone) | self-aminoacylation (biotinyl-Met-oxazolone) | self-aminoacylation (biotinyl-Leu-oxazolone) | self-aminoacylation (biotinyl-Val-oxazolone) | self-aminoacylation (biotinyl-Trp-oxazolone) | self-aminoacylation (biotinyl-Ile-oxazolone) |
| --- | --- | --- | --- | --- | --- | --- |
| CUACUUGAAACAAUCGGUCUA [Fam1A.1 aminoacylation ribozyme variant] | 0.803 | 0.822 | 0.784 | 0.726 | 0.787 | 0.845 |
| CCACUUCAAACAUUCGGUCUG [Fam1A.1 aminoacylation ribozyme variant] | 5.58 | 1.53 | 1.46 | 1.9 | 2.73 | 1.82 |
| AUUCACCUAGGUCUUCGGAUG [Fam2.2 aminoacylation ribozyme variant] | 1.58 | 1.05 | 1.33 | 1.15 | 1.38 | 1.03 |
| CCACACCUCAAGCAAUCUGUC [Fam1B.1 aminoacylation ribozyme variant] | 0.689 | 0.427 | 0.364 | 0.631 | 0.339 | 0.463 |
| CAGUUUGCUUAUAGUCGCAAG [Fam3.1 aminoacylation ribozyme variant] | 1.77 | 1.07 | 1.44 | 1.2 | 0.563 | 0.957 |
| AAUCACAUAGGUCAUCGGGUG [Fam2.2 aminoacylation ribozyme variant] | 49.2 | 7.73 | 7.16 | 4.18 | 6.45 | 4.88 |
| AUUACCCUGGUCAUCCAGUCA [Fam2.1 aminoacylation ribozyme variant] | 0.568 | 0.923 | 1.17 | 0.975 | 0.463 | 1.16 |
| CUACGUCAAACAAUCGGUCUA [Fam1A.1 aminoacylation ribozyme variant] | 1.03 | 1.1 | 1.14 | 1.19 | 1.33 | 1.03 |
| CCACACUUGAAGCAAUCGGGC [Fam1B.1 aminoacylation ribozyme variant] | 5.71 | 1.34 | 1.57 | 2.63 | 2.26 | 1.55 |
| CCACACUUCAAGCAAUCGAUU [Fam1B.1 aminoacylation ribozyme variant] | 0.863 | 0.726 | 0.644 | 0.855 | 0.894 | 0.879 |
| AAGUUAGCUAGUAGUCGCAAG [Fam3.1 aminoacylation ribozyme variant] | 1.96 | 1.53 | 1.11 | 1.49 |  | 1.64 |
| AUUACCCUGGUCAUGCAGUGA [Fam2.1 aminoacylation ribozyme variant] | 0.826 | 1.39 | 1.17 | 1.13 | 0.944 | 1.07 |
| CCACACUCCGAGCAAUCGGUC [Fam1B.1 aminoacylation ribozyme variant] | 0.739 | 1.39 | 1.3 | 1.81 |  | 1.56 |
| CCACACUUAAAGCAAUCGGGC [Fam1B.1 aminoacylation ribozyme variant] | 1.13 | 1.47 | 1.19 | 1.92 | 1.99 |  |
| CUACGUCAAACAAUCGGCCUG [Fam1A.1 aminoacylation ribozyme variant] | 1.36 |  |  |  |  |  |
| CCACACUCCAAGCAUUCGGUC [Fam1B.1 aminoacylation ribozyme variant] | 1.41 | 1.76 | 1.97 |  | 1.37 | 1.96 |
| CCACACUUCUAGCAAUCGGCC [Fam1B.1 aminoacylation ribozyme variant] | 1.99 |  |  |  |  | 1.84 |
| CUACUUCAAACACCCGGUCUG [Fam1A.1 aminoacylation ribozyme variant] | 0.961 | 1.71 | 1.68 | 1.75 |  | 1.75 |
| AUUACCCUGUUCAUCGAGUGU [Fam2.1 aminoacylation ribozyme variant] | 1.59 |  |  |  |  | 1.46 |
| AAGUUUUCUAAUUGUCGCAAG [Fam3.1 aminoacylation ribozyme variant] |  | 1.56 | 1.62 | 1.62 | 1.82 | 1.62 |
| CCACACCACAAGCAAUCGGUC [Fam1B.1 aminoacylation ribozyme variant] |  | 0.999 | 0.949 | 1.1 | 0.871 | 1.13 |
| CCACACUUCAAGCAAACGGCC [Fam1B.1 aminoacylation ribozyme variant] | 1.39 | 1.67 |  |  |  |  |
| AAGUUGGCUAAUAGUUGCAAG [Fam3.1 aminoacylation ribozyme variant] |  | 1.53 | 1.09 | 1.29 | 1.92 | 1.39 |
| AUUAACCUGGCCAUCGAGUGA [Fam2.1 aminoacylation ribozyme variant] | 1.86 |  |  | 1.39 |  | 1.52 |
| CUACUACAAACUAUCGGUCUG [Fam1A.1 aminoacylation ribozyme variant] |  | 0.949 | 0.713 | 0.839 | 0.717 | 0.869 |
| AUUCUCCUAGGUCAUCGUGUG [Fam2.2 aminoacylation ribozyme variant] |  | 1.36 | 1.48 | 1.15 | 1.32 | 1.15 |
| CUACUUCAAACAAGCGGUCGG [Fam1A.1 aminoacylation ribozyme variant] |  | 1.42 | 1.64 | 1.3 | 1.12 | 1.44 |

| Sequence | self-aminoacylation (biotinyl-Phe-oxazolone) | self-aminoacylation (biotinyl-Met-oxazolone) | self-aminoacylation (biotinyl-Leu-oxazolone) | self-aminoacylation (biotinyl-Val-oxazolone) | self-aminoacylation (biotinyl-Trp-oxazolone) | self-aminoacylation (biotinyl-Ile-oxazolone) |
| --- | --- | --- | --- | --- | --- | --- |
| AUUACCCUGGUCGUCGAGUGG [Fam2.1 aminoacylation ribozyme variant] |  | 0.991 | 0.855 | 0.815 | 0.807 | 0.964 |
| AUGUUUGCUAAUAGUCGCAAU [Fam3.1 aminoacylation ribozyme variant] |  | 1.08 | 1.33 | 1.37 | 1.99 | 1.6 |
| AUUGCCCUGGUCAGCGAGUGA [Fam2.1 aminoacylation ribozyme variant] |  | 5.91 | 5.65 | 3.76 | 6.28 | 3.29 |
| CAACUUCAACCAAUCGGUCUG [Fam1A.1 aminoacylation ribozyme variant] |  | 1.67 | 2.41 | 1.61 | 33.2 | 1.37 |
| CACCUUCAAACAAUCGGUCUG [Fam1A.1 aminoacylation ribozyme variant] |  | 1.77 | 2.61 | 1.63 | 43.9 | 1.78 |
| AUUGACCUAGGUCAUCGGGUU [Fam2.2 aminoacylation ribozyme variant] |  | 13.9 | 18.8 | 6.49 | 12.2 | 7.25 |
| CCACUUCAAACAAUCAGUCUG [Fam1A.1 aminoacylation ribozyme variant] |  | 0.98 | 1.23 | 0.803 | 10.1 | 1.03 |
| AAGUUUGCGAAUAGUUGCAAG [Fam3.1 aminoacylation ribozyme variant] |  | 1.2 | 0.661 | 0.803 | 1.16 | 0.915 |
| CCACACUUCAAUCCAUCGGUC [Fam1B.1 aminoacylation ribozyme variant] |  | 0.824 | 0.676 | 0.91 | 0.553 | 0.801 |
| AAGUUUGCUAAUAGUCGCCUG [Fam3.1 aminoacylation ribozyme variant] |  | 1.18 | 1.43 | 1.27 | 1.66 | 1.66 |
| CUACUGCCAACAAUCGGUCUG [Fam1A.1 aminoacylation ribozyme variant] |  | 0.773 | 0.64 | 0.744 | 0.531 | 0.744 |
| CUACUUCCAACAGUCGGUCUG [Fam1A.1 aminoacylation ribozyme variant] |  | 1.06 | 0.971 | 0.851 | 0.76 | 0.911 |
| CCACACCUCAAGCAAUCGGUA [Fam1B.1 aminoacylation ribozyme variant] | 0.601 | 1.25 | 1.28 |  | 1.07 | 1.55 |
| AUAACCCUGGUAAUCGAGUGA [Fam2.1 aminoacylation ribozyme variant] |  | 7.93 | 8.57 | 3.58 | 9.38 | 3.97 |
| AUUUCCCUGGUCAUCGAGCGA [Fam2.1 aminoacylation ribozyme variant] | 0.815 |  |  | 1.96 |  | 1.7 |
| CCACACCUCAAGCAAUCAGUC [Fam1B.1 aminoacylation ribozyme variant] |  | 0.804 | 0.6 | 0.856 | 0.558 | 0.843 |
| CCACGGUUCAAGCAAUCGGUC [Fam1B.1 aminoacylation ribozyme variant] |  | 1.02 | 1.07 | 1.22 | 2.21 | 1.08 |
| AUUCACCUAGGUCAUUAGGUG [Fam2.2 aminoacylation ribozyme variant] | 1.52 | 1.75 | 1.84 | 1.18 |  | 1.39 |
| ACGUUUGCUAAUAGUGGCAAG [Fam3.1 aminoacylation ribozyme variant] |  | 0.75 | 0.804 | 0.741 | 0.59 | 0.853 |
| AAGUUCGCUAGUAGUCGCAAG [Fam3.1 aminoacylation ribozyme variant] |  | 0.987 | 1.12 | 1.28 | 1.33 | 1.81 |
| AUUCAUCUAGGUCAUCGGCUG [Fam2.2 aminoacylation ribozyme variant] |  | 1.82 | 1.87 | 1.61 | 1.59 | 1.69 |
| ACUACCCUGGUCAUCGACUGA [Fam2.1 aminoacylation ribozyme variant] |  | 1.09 | 0.769 | 0.854 | 0.51 | 0.918 |
| ACUCACCUAGGUCAUCGUGUG [Fam2.2 aminoacylation ribozyme variant] |  | 0.925 | 1.34 | 1.09 | 0.891 | 1.21 |
| CAGUUUGCUAAUAGUCGCUAG [Fam3.1 aminoacylation ribozyme variant] |  | 1.12 | 1.4 | 1.17 | 1.5 | 1.76 |
| AAUUUUGCUAAUGGUCGCAAG [Fam3.1 aminoacylation ribozyme variant] |  | 1.33 | 1.59 | 1.4 | 1.83 | 1.66 |
| AAGAUGGCUAAUAGUCGCAAG [Fam3.1 aminoacylation ribozyme variant] |  | 1.33 | 1.42 | 1.6 | 1.88 | 1.76 |
